# Results as given in PMC9879961.
# Numbering of substitutions follows the chain as printed. Construct, isoform or probe ends are uncertain for at least one entry. For some assays here: A weaker result is weaker than the reference pair of the same experiment. For some assays here: At least one verdict was read from the data and is not stated in words by the source. For some assays here: Tags and fusion partners may be left off the protein sequences shown.
# Assays:
# Experiment in all cases: EMSA
# CTRB (Homo sapiens) = biological target: T1, CTRB (Homo sapiens) (UniProt P51587); details: EMSA: 10 nM DNA, 35 mM Tris pH 7.5, 1 mM MgCl2, 1 mM DTT, 100 ug/ml BSA, 50 mM KCl, 25 C, 5 min, 8% native PAGE in TAE, recombinant protein, residues 3194-3418, protein details: N-term His6-thioredoxin-S (pET32a), C-term Flag
# T1 sequence (looked up): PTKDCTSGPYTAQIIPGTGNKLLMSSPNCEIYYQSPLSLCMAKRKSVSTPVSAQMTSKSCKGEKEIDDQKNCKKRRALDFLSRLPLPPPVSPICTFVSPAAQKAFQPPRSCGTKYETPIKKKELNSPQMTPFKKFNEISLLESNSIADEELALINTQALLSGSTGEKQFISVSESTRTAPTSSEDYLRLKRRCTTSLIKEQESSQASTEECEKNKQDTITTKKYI
# [1] = biological target: T2, CTRB-4A K3266A,K3267A,R3268A,R3269A (Homo sapiens) (UniProt P51587); details: strongly impaired, EMSA: 10 nM DNA, 35 mM Tris pH 7.5, 1 mM MgCl2, 1 mM DTT, 100 ug/ml BSA, 50 mM KCl, 25 C, 5 min, 8% native PAGE in TAE, recombinant protein, residues 3194-3418, protein details: N-term His6-thioredoxin-S (pET32a), C-term Flag
# T2 sequence (looked up): T1 sequence (looked up) with K73A, K74A, R75A, R76A
# [2] = biological target: T3, CTRB-F/A F3298A (Homo sapiens) (UniProt P51587); details: no impact of mutation, EMSA: 10 nM DNA, 35 mM Tris pH 7.5, 1 mM MgCl2, 1 mM DTT, 100 ug/ml BSA, 50 mM KCl, 25 C, 5 min, 8% native PAGE in TAE, recombinant protein, residues 3194-3418, protein details: N-term His6-thioredoxin-S (pET32a), C-term Flag
# T3 sequence (looked up): T1 sequence (looked up) with F105A
# [3] = tested on: mini-BRCA2 (BRC4-DBD-CTRB) + DSS1; details: EMSA: 10 nM DNA, 35 mM Tris pH 7.5, 1 mM MgCl2, 1 mM DTT, 100 ug/ml BSA, 50 mM KCl, 25 C, 5 min, 8% native PAGE in TAE, recombinant protein, protein details: C-term His6-Flag,GST (pDEST20)
# [4] = label: 5' 32P or Cy5, single-stranded DNA
Sequence,"binding result (CTRB (Homo sapiens); affinity about the same as for ssDNA, label: 5' 32P or Cy5 on H3)",binding result ([1]; label: 5' 32P or Cy5 on H3),binding result ([2]; label: 5' 32P or Cy5 on H3),"binding result ([3]; dsDNA affinity similar to CTRB, label: 5' 32P or Cy5 on H3)",binding result (CTRB (Homo sapiens); [4]),"binding result [1, 4]","binding result [2, 4]","binding result ([3]; higher ssDNA affinity than CTRB, label: 5' 32P or Cy5, single-stranded DNA)"
TTGATAAGAGGTCATTTGAATTCATGGCTTAGAGCTTAATTGCTGAATCTGGTGCTGGGATCCAACATGTTTTAAATATG (double strand) [80bp dsDNA (Oligo-H3/H4)],binds,binds more weakly,binds,binds,–,–,–,–
"TTGATAAGAGGTCATTTGAATTCATGGCTTAGAGCTTAATTGCTGAATCTGGTGCTGGGATCCAACATGTTTTAAATATG [ssDNA (Oligo-H3, 80-mer)]",–,–,–,–,binds,binds more weakly,binds,binds
